Reference: the supplement of paper PMC10849652
Some of the results follow.

By UniProt entry, the sequences of proteins in these tests, tags left out. Where a name states a change or a piece, a line headed by the entry shows the natural chain unless it says otherwise.
UniProt Q9UJW0, whole entry, looked up: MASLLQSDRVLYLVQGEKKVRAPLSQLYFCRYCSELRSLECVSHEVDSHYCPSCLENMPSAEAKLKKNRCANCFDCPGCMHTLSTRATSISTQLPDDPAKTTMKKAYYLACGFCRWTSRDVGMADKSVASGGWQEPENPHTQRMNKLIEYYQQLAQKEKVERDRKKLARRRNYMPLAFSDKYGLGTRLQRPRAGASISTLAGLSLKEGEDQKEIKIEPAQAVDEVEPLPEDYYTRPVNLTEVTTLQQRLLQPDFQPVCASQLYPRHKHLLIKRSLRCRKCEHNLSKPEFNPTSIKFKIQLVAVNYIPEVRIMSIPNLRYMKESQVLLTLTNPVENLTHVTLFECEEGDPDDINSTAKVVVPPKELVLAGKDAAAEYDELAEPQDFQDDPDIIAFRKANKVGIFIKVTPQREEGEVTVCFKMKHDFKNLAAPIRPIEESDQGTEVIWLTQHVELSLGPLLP
UniProt Q92564: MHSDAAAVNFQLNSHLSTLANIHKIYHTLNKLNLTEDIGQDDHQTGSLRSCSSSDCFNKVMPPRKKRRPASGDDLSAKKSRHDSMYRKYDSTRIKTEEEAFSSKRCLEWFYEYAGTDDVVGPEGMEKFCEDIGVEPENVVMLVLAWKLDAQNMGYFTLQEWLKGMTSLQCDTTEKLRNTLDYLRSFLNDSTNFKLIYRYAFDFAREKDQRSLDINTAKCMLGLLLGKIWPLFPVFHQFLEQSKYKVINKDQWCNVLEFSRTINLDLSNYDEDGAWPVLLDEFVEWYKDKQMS
UniProt Q9UER7, whole entry, looked up: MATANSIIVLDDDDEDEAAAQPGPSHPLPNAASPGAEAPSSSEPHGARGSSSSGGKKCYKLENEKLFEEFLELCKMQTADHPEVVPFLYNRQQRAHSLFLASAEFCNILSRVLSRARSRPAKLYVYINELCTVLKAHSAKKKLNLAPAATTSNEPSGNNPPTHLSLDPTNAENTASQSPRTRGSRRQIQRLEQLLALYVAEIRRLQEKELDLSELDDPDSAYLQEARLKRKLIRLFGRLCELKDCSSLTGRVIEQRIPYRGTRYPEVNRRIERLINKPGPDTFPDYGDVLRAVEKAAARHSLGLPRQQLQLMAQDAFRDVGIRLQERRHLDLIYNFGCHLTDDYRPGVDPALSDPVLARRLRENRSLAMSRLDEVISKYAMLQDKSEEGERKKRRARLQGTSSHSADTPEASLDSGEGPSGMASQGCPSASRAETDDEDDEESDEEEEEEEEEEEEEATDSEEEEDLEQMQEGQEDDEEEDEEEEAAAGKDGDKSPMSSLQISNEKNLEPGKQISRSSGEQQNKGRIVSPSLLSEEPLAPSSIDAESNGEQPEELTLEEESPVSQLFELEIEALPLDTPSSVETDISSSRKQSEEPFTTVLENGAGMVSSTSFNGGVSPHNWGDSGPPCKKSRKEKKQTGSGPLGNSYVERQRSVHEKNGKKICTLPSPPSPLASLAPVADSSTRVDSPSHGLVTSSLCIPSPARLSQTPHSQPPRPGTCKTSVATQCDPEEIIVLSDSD
UniProt P51397: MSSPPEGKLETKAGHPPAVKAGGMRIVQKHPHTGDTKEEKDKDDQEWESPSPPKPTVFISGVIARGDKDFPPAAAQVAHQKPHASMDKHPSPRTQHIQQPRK
UniProt Q16698: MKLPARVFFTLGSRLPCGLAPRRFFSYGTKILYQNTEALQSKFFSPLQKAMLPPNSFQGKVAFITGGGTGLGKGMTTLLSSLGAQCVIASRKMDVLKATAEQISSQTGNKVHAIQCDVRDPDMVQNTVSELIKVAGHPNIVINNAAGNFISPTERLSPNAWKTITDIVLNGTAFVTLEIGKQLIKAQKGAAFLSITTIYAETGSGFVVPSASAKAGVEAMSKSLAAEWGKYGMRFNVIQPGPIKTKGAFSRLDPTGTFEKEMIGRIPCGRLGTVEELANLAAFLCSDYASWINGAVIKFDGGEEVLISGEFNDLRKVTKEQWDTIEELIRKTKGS
UniProt Q92841: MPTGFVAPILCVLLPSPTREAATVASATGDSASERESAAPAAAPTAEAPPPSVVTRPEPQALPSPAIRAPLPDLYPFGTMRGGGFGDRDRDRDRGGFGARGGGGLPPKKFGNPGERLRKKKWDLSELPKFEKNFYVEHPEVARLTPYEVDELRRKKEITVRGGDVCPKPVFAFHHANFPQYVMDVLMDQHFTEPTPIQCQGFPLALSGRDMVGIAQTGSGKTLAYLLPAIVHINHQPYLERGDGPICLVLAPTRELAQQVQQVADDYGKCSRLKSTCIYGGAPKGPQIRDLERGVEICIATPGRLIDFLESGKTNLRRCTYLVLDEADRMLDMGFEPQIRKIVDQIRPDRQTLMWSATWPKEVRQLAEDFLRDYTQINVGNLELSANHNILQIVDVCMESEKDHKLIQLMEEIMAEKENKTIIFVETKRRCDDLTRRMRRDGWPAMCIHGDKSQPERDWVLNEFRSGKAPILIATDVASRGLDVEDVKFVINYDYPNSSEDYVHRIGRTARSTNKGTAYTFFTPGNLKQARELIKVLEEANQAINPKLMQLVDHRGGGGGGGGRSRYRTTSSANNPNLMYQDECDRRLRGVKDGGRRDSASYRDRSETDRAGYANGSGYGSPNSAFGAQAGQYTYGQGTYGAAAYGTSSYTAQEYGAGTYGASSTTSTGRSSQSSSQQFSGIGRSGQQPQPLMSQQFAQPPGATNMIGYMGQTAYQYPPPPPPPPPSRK
UniProt P98082: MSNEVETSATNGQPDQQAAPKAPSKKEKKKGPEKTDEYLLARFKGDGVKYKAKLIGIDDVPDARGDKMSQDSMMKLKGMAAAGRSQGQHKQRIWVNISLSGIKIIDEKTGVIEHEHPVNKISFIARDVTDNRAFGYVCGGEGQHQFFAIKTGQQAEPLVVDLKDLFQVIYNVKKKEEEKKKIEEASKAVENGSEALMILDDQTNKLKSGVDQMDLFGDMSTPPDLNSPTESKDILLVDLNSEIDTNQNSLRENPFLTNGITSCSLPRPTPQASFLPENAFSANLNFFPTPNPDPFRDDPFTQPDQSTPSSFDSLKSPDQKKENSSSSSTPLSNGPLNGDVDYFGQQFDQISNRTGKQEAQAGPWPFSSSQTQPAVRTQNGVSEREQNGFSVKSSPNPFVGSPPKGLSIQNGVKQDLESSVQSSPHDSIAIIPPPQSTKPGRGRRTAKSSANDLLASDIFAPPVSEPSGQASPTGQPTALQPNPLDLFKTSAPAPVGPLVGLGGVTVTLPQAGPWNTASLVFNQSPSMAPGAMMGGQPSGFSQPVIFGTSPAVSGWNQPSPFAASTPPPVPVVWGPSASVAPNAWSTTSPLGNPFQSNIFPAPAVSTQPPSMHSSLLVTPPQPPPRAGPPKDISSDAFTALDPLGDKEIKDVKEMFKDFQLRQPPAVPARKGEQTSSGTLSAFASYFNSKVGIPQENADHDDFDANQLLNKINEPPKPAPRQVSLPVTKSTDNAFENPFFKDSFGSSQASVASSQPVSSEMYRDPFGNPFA
UniProt P11182, whole entry, looked up: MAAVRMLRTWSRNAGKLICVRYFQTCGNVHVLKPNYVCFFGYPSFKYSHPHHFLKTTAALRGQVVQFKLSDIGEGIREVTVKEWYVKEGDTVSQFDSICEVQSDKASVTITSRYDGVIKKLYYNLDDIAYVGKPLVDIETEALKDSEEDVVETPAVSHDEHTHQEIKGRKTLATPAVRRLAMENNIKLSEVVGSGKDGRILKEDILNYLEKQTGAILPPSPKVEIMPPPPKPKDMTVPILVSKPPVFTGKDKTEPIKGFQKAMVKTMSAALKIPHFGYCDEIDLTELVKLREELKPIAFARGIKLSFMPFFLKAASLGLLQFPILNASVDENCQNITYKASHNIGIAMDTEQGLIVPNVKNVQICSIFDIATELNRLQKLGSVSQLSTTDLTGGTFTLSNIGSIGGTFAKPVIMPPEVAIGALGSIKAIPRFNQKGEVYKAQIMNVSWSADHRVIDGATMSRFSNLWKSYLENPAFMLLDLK
UniProt Q9Y2R4: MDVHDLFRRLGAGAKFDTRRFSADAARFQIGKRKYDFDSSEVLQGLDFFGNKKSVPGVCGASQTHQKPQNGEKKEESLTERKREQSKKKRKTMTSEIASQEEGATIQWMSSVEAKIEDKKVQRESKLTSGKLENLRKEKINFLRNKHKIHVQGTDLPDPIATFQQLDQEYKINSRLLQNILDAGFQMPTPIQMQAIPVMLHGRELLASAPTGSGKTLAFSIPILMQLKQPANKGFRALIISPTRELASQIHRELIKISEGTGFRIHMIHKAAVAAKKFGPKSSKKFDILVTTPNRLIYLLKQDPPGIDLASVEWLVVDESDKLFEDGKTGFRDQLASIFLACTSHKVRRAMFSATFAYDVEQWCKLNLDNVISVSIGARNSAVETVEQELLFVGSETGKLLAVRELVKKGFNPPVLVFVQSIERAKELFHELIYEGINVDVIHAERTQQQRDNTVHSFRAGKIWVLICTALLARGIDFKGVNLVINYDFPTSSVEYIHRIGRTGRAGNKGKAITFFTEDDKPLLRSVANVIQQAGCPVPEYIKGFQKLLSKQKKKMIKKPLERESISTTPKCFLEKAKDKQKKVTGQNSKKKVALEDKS
UniProt P07108: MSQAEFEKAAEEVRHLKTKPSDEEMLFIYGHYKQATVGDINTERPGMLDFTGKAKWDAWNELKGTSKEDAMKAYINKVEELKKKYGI
UniProt Q8NA75: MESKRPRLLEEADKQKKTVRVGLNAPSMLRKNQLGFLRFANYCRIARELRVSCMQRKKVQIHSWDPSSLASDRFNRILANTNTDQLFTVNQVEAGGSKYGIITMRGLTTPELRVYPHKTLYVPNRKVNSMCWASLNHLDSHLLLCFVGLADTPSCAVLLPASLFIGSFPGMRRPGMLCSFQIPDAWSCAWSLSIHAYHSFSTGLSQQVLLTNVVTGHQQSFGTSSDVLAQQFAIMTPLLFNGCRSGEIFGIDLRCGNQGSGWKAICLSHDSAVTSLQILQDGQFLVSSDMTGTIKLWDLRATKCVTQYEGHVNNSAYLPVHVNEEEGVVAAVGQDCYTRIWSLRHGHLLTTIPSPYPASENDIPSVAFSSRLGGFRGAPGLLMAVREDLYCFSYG
UniProt Q9H773: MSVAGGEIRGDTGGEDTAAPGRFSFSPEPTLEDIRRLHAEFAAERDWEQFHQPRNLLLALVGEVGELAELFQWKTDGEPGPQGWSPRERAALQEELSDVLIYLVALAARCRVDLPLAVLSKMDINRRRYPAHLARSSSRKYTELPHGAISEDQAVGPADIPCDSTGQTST
UniProt Q9Y6V7: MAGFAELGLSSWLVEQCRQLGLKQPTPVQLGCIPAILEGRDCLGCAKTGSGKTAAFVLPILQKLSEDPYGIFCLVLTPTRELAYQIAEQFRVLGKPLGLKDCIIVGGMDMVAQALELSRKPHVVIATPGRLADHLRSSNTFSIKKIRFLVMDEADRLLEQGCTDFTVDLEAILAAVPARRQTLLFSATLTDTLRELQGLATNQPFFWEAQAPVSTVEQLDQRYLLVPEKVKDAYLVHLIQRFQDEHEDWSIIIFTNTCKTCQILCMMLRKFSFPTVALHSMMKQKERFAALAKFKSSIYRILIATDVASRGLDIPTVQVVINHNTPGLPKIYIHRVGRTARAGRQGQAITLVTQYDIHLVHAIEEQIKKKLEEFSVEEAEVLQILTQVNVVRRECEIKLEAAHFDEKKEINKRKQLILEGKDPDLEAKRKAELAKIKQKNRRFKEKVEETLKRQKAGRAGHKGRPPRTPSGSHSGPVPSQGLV
UniProt P14868: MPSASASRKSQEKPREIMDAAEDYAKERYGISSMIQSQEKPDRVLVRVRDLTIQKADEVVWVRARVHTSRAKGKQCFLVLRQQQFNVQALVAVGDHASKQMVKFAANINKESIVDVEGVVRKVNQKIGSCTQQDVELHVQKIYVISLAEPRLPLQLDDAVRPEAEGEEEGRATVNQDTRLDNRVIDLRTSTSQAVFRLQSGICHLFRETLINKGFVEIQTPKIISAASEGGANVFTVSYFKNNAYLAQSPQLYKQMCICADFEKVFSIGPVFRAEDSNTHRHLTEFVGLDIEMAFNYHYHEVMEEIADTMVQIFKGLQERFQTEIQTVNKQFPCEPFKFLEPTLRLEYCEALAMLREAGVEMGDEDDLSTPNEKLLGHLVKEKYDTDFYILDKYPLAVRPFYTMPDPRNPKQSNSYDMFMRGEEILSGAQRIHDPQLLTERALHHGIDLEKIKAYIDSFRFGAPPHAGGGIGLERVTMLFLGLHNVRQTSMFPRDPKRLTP
UniProt O95865: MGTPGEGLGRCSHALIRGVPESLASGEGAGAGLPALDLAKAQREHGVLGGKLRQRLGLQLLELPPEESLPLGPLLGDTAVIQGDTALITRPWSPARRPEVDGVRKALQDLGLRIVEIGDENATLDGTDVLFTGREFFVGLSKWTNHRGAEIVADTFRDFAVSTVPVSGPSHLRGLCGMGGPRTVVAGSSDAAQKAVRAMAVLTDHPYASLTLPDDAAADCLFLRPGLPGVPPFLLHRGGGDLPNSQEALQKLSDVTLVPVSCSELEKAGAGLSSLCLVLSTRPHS

Tests used:
Test in all cases: log2 fold change, soluble protein after heating vs DMSO (PISA); higher = thermal stabilisation; K562 lysate, 10 uM; active = over 0.2 and 3.5 SD of the protein, either way, in both replicates (recomputed)
nilotinib = compound: Cc1cn(-c2cc(NC(=O)c3ccc(C)c(Nc4nccc(-c5cccnc5)n4)c3)cc(C(F)(F)F)c2)cn1 [nilotinib]
Procedure, shortened: (§1)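 Following dounce homogenisation of K562 pellets in PBS pH 7.4 with 1 mM MgCl2, crude extract at 1 mg/mL protein was incubated for 30 min with 10 μM compound. Aliquots were then heated for 3 min over 48°C-58°C and pooled, NP-40 was added to 0.5% at 4°C, and soluble protein was recovered as the supernatant at 21,000xg for 90 min. Channel-sum-equalised TMTpro 16plex LC-MS/MS quantified this protein. Each value, from duplicates, is a log-two fold change in thermal stability relative to solvent controls.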

[1] = compound: Cc1nc(Nc2n[nH]c3c2CN(C(=O)N[C@H](CN(C)C)c2ccccc2)C3(C)C)c2sccc2n1
Procedure, shortened: as §1

dasatinib = compound: Cc1nc(Nc2ncc(C(=O)Nc3c(C)cccc3Cl)s2)cc(N2CCN(CCO)CC2)n1 [dasatinib]
Procedure, shortened: as §1

[2] = compound: Cc1ncc(-c2ccnc(Nc3ccc(S(C)(=O)=O)cc3)n2)n1C(C)C
Procedure, shortened: as §1

[3] = compound: Cn1cc(-c2ccc3c(c2)CCN3C(=O)Cc2cccc(C(F)(F)F)c2)c2c(N)ncnc21
Procedure, shortened: as §1

quisinostat = compound: Cn1cc(CNCC2CCN(c3ncc(C(=O)NO)cn3)CC2)c2ccccc21 [quisinostat]
Procedure, shortened: as §1

tipifarnib = compound: Cn1cncc1[C@@](N)(c1ccc(Cl)cc1)c1ccc2c(c1)c(-c1cccc(Cl)c1)cc(=O)n2C [tipifarnib]
Procedure, shortened: as §1

[4] = compound: NC(=O)Nc1cc(-c2cccc(F)c2)sc1C(=O)N[C@H]1CCCNC1
Procedure, shortened: as §1

[5] = compound: NC(=O)c1cnc(N[C@@H]2CCCC[C@@H]2N)nc1Nc1cccc(-n2nccn2)c1
Procedure, shortened: as §1

[6] = compound: NC1(c2ccc(-c3nc4ccn5c(=O)[nH]nc5c4cc3-c3ccccc3)cc2)CCC1
Procedure, shortened: as §1

[7] = compound: NCC(=O)Nc1ccc(-n2nc(C(F)(F)F)cc2-c2ccc3c(ccc4ccccc43)c2)cc1
Procedure, shortened: as §1

vorinostat = compound: O=C(CCCCCCC(=O)Nc1ccccc1)NO [vorinostat]
Procedure, shortened: as §1

silmitasertib = compound: O=C(O)c1ccc2c(c1)nc(Nc1cccc(Cl)c1)c1ccncc12 [silmitasertib]
Procedure, shortened: as §1

[8] = compound: O=C1NC(=O)C(c2cnc3ccccn23)=C1c1cn2c3c(cc(F)cc13)CN(C(=O)N1CCCCC1)CC2
Procedure, shortened: as §1

entospletinib = compound: c1cn2cc(-c3ccc4cn[nH]c4c3)nc(Nc3ccc(N4CCOCC4)cc3)c2n1 [entospletinib]
Procedure, shortened: as §1

Target	log2 fold change (nilotinib)	log2 fold change [1]	log2 fold change (dasatinib)	log2 fold change [2]	log2 fold change [3]	log2 fold change (quisinostat)	log2 fold change (tipifarnib)	log2 fold change [4]	log2 fold change [5]	log2 fold change [6]	log2 fold change [7]	log2 fold change (vorinostat)	log2 fold change (silmitasertib)	log2 fold change [8]	log2 fold change (entospletinib)
DCAF6 isoform 3 (UniProt Q58WW2)	inactive: 0.003	inactive: 0.015	inactive: -0.013	inactive: -0.003	inactive: 0.02	inactive: 0.007	inactive: 0.037	inactive: -0.012	inactive: -0.006	inactive: -0.058	inactive: -0.054	inactive: 0.043	inactive: 0.047	inactive: -0.021	inactive: -0.002
DCTN4 (UniProt Q9UJW0)	inactive: 0.026	inactive: 0.008	inactive: -0.055	inactive: 0.027	inactive: -0.02	inactive: 0.032	inactive: 0.03	inactive: -0.046	inactive: 0.015	inactive: -0.002	inactive: -0.008	inactive: 0.04	inactive: -0.006	inactive: -0.002	inactive: -0.007
DCUN1D4 isoform 3 (UniProt Q92564)	inactive: 0.023	inactive: -0.007	inactive: -0.062	inactive: -0.009	inactive: -0.046	inactive: 0.066	inactive: 0.017	inactive: -0.019	inactive: -0.036	inactive: -0.043	inactive: 0.066	inactive: 0.128	inactive: -0.031	inactive: -0.121	inactive: -0.096
DAXX (UniProt Q9UER7)	inactive: 0.01	inactive: -0.044	inactive: 0.043	inactive: 0.07	inactive: -0.042	inactive: -0.122	inactive: -0.045	inactive: 0.038	inactive: 0.003	inactive: -0.048	inactive: 0.069	inactive: -0.049	inactive: -0.005	inactive: 0.039	inactive: -0.008
DAP (UniProt P51397)	inactive: 0.027	inactive: -0.011	inactive: 0.004	inactive: 0.028	inactive: -0.056	inactive: 0.017	inactive: 0.026	inactive: -0.004	inactive: -0.053	inactive: 0.002	inactive: 0.009	inactive: 0.13	inactive: -0.088	inactive: 0.028	inactive: -0.002
DECR1 (UniProt Q16698)	inactive: -0.008	inactive: 0.034	inactive: -0.056	inactive: 0.007	inactive: 0.02	inactive: 0.084	inactive: 0.04	inactive: -0.01	inactive: -0.017	inactive: 0.028	inactive: -0.016	inactive: 0.128	inactive: 0	inactive: -0.017	inactive: 0.005
DDX17 (UniProt Q92841)	inactive: -0.047	inactive: -0.012	inactive: 0.003	inactive: -0.03	inactive: 0.01	inactive: 0.038	inactive: 0.005	inactive: 0.004	inactive: 0.006	inactive: 0.025	inactive: 0.025	inactive: -0.215	inactive: 0.029	inactive: -0.022	inactive: 0.042
DAB2 (UniProt P98082)	inactive: -0.011	inactive: 0.024	inactive: 0	inactive: 0.034	inactive: 0.02	inactive: -0.026	inactive: -0.034	inactive: 0.058	inactive: 0	inactive: -0.002	inactive: 0.029	inactive: -0.047	inactive: -0.024	inactive: 0.005	inactive: -0.069
DBT (UniProt P11182)	inactive: 0.028	inactive: -0.028	inactive: -0.059	inactive: -0.007	inactive: 0.032	inactive: -0.032	inactive: -0.002	inactive: 0.015	inactive: 0.005	inactive: 0.001	inactive: -0.031	inactive: 0.045	inactive: -0.015	inactive: 0.014	inactive: 0
DDX52 (UniProt Q9Y2R4)	inactive: 0.087	inactive: 0.073	inactive: 0.047	inactive: -0.067	inactive: -0.057	inactive: -0.13	inactive: -0.068	inactive: 0.089	inactive: 0.035	inactive: 0.01	inactive: -0.004	inactive: -0.188	inactive: -0.04	inactive: -0.086	inactive: 0.018
CYP24A1 (UniProt Q07973)	inactive: 0.036	inactive: -0.029	inactive: -0.049	inactive: 0.015	inactive: 0.008	inactive: -0.33	inactive: -0.018	inactive: 0.04	inactive: 0.068	inactive: -0.161	inactive: 0.187	inactive: 0.119	inactive: 0.019	inactive: 0.081	inactive: 0.002
DES (UniProt P17661)	inactive: 0.009	inactive: -0.04	inactive: -0.024	inactive: 0.004	inactive: -0.057	inactive: -0.162	inactive: -0.008	inactive: 0	inactive: 0.041	inactive: 0.034	inactive: 0.108	inactive: 0.097	inactive: 0.03	inactive: 0.05	inactive: 0.027
DBI isoform 5 (UniProt P07108)	inactive: 0.003	inactive: 0.094	inactive: 0.006	inactive: 0.041	inactive: 0.015	inactive: 0.035	inactive: -0.002	inactive: -0.038	inactive: -0.032	inactive: -0.059	inactive: -0.095	inactive: 0.162	inactive: -0.07	inactive: 0.039	inactive: -0.124
DDX10 (UniProt Q13206)	inactive: 0.032	inactive: -0.003	inactive: -0.047	inactive: 0.063	inactive: -0.01	inactive: 0.146	inactive: 0.076	inactive: 0.086	inactive: -0.117	inactive: -0.038	inactive: -0.085	inactive: -0.073	inactive: 0.058	inactive: 0.031	inactive: -0.01
DCAF4L2 (UniProt Q8NA75)	inactive: -0.028	inactive: -0.026	inactive: -0.093	inactive: -0.151	inactive: -0.1	inactive: 0.142	inactive: 0.071	inactive: 0.008	inactive: -0.07	inactive: 0.061	inactive: 0.306	inactive: 0.102	inactive: 0.015	inactive: -0.039	inactive: -0.063
DCTPP1 (UniProt Q9H773)	inactive: -0.009	inactive: 0.059	inactive: -0.036	inactive: 0.02	inactive: -0.005	inactive: -0.02	inactive: 0.004	inactive: -0.01	inactive: 0.007	inactive: -0.021	inactive: -0.023	inactive: 0.152	inactive: 0.034	inactive: -0.017	inactive: -0.118
DCTN6 (UniProt O00399)	inactive: -0.05	inactive: 0.023	inactive: 0.005	inactive: 0.048	inactive: -0.01	inactive: -0.007	inactive: -0.04	inactive: -0.004	inactive: -0.044	inactive: -0.046	inactive: 0.017	inactive: 0.112	inactive: 0.023	inactive: 0.026	inactive: -0.041
DDX49 (UniProt Q9Y6V7)	inactive: 0.044	inactive: -0.058	inactive: -0.027	inactive: 0.043	inactive: 0.175	inactive: -0.022	inactive: -0.04	inactive: 0.064	inactive: 0.027	inactive: -0.006	inactive: -0.005	inactive: -0.04	inactive: 0.005	inactive: -0.006	inactive: 0.01
DENND4B (UniProt O75064)	inactive: -0.049	inactive: 0.007	inactive: -0.074	inactive: 0.038	inactive: -0.013	inactive: -0.058	inactive: 0.074	inactive: 0.042	inactive: 0.009	inactive: 0.027	inactive: 0.011	inactive: -0.017	inactive: 0.022	inactive: -0.022	inactive: -0.019
DARS (UniProt P14868)	inactive: 0.01	inactive: -0.004	inactive: -0.032	inactive: -0.015	inactive: 0.063	inactive: -0.007	inactive: 0.01	inactive: 0.044	inactive: -0.008	inactive: 0.002	inactive: 0.003	active: -0.327	inactive: 0.056	inactive: 0.019	inactive: 0.035
DDAH2 (UniProt O95865)	inactive: 0.03	inactive: 0.022	inactive: 0.023	inactive: -0.051	inactive: -0.016	inactive: 0.041	inactive: 0.026	inactive: -0.052	inactive: -0.009	inactive: 0.005	inactive: -0.124	inactive: 0.091	inactive: 0.002	inactive: -0.026	inactive: -0.048

Single records (already shown). Values in the order: log2 fold change (nilotinib)	log2 fold change [1]	log2 fold change (dasatinib)	log2 fold change [2]	log2 fold change [3]	log2 fold change (quisinostat)	log2 fold change (tipifarnib)	log2 fold change [4]	log2 fold change [5]	log2 fold change [6]	log2 fold change [7]	log2 fold change (vorinostat)	log2 fold change (silmitasertib)	log2 fold change [8]	log2 fold change (entospletinib)
DCTN4 (UniProt Q9UJW0) as listed: inactive: 0.026	inactive: 0.008	inactive: -0.055	inactive: 0.027	inactive: -0.02	inactive: 0.032	inactive: 0.03	inactive: -0.046	inactive: 0.015	inactive: -0.002	inactive: -0.008	inactive: 0.04	inactive: -0.006	inactive: -0.002	inactive: -0.007
DAXX (UniProt Q9UER7) as listed: inactive: 0.01	inactive: -0.044	inactive: 0.043	inactive: 0.07	inactive: -0.042	inactive: -0.122	inactive: -0.045	inactive: 0.038	inactive: 0.003	inactive: -0.048	inactive: 0.069	inactive: -0.049	inactive: -0.005	inactive: 0.039	inactive: -0.008
